Source: PubChem BioAssay AID1347423 (Functional Genomics Laboratory (NCATS/FGL), 2020)
Among all 52,000 sequences or so, about 210 (0.4%) were called active.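 How the source made its calls: active means gene whose silencing raises cell survival under the drug, median off-target-corrected z-score across its silencing RNAs 2 or more; inactive means the rest.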 The list shows a part of the results.

Assay: Resistance to Poly (ADP-Ribose) Polymerase inhibitor: Gene Identification via Genome-wide siRNA Screen
Details: mouse BRCA2 R2336H ES cells, olaparib, CellTiter-Glo viability; active compounds read high
Procedure, shortened: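 Genome-wide siRNA screen (3 siRNAs/gene, 20 nM) in mouse ES cells carrying hypomorphic BRCA2 R2336H; olaparib 500 nM added 48 h post-transfection, CellTiter-Glo viability 72 h later. Normalized to plate-median negative control; MAD z-scores, gene median, seed-adjusted.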
With “GGAAAAAUCCAAGAAGCAATT against 5730454B08Rik” the z-score was inactive: -0.909.
With GGUCAACCUCAAAGUCUUUTT against Il17 the z-score was inactive: -1.19.
For GGGAUGCAUCAAAAUACAATT against Pdk3, the z-score was inactive: -0.364.
With CCUACUUUGGACUCUUUCATT against Tnfsf12 the z-score was inactive: -0.979.
For “CGAACAGAUGCUUAAUGUCTT against 4930542G03Rik”, the z-score was inactive: 0.895.
For GGCAGAAGAAAUCUUAAAUTT against Dnali1, the z-score was inactive: 0.593.
For GGUUUUAGGGUUUUUAACATT against Edg4, the z-score was inactive: 0.299.
For GGGAUUGCUCACAUCUCUGTT against SIRP-beta, the z-score was inactive: -0.441.
With GGACAGACGUGCACUUAGATT against Garnl3 the z-score was inactive: -1.07.
With GCAGACGAAUAAAUAGCUGTT against Capza1 the z-score was inactive: 1.21.
With CCUGAUCCUGACUAACCGUTT against Htr2b the z-score was inactive: 0.13.
For “GCUCACUAACUUUUACAAGTT against 1700001C02Rik”, the z-score was inactive: 0.374.
With GACUAAGCAGUGGAAGAGCTT against Krtap21-1 the z-score was inactive: -0.359.
For “GCUGAUCAGAGACCAUUACTT against 2610528E23Rik”, the z-score was inactive: -0.319.
With GCUCCUCAUGAUAUUGGCCTT against Nagk the z-score was inactive: 0.324.
In the case of CCCUCUCCCUUCAAUGUGGTT against Gif, the z-score is reported as inactive: -0.382.
With GGCCUUCCUCUUCUGCUUATT against Csf3r the z-score was inactive: -0.772.
For GGCCAACCCAGAGAGUACUTT against Hrpt2, the z-score was inactive: -1.07.
For “GGUAGAGAAUUGAAACCUATT against 2410127E18Rik”, the z-score was inactive: 1.73.
With GGAGUUUCAAAGUGCGAGUTT against Rin1 the z-score was inactive: 0.723.
For GGCUCAAAUUCGAAAACACTT against Zfp235, the z-score was inactive: 1.9.
In the case of GCAUUGGGCAAAUGUCUGGTT against Olfr933, the z-score is reported as inactive: 1.26.
For AUAGUGGAACCCUUUGUACTT against Olfr1195, the z-score was inactive: 0.509.
In the case of GGCCGUUAUUAAAUUCAUATT against Twsg1, the z-score is reported as inactive: 0.585.
For GGGAACACAAAACCAUUUCTT against Olfr1299, the z-score was inactive: -1.71.
With GGAAUACGACAGAACUCCATT against Extl1 the z-score was inactive: -0.291.
For “GGCAGCUUGUAAAAAUCCATT against 2810002O09Rik”, the z-score was inactive: 1.3.
In the case of CCAUACGUUUUUCAGAAUGTT against Epb4.1l4a, the z-score is reported as inactive: 0.999.
For GGUUUCGAACUGAUGAAGCTT against Sdccag1, the z-score was inactive: 0.0253.
In the case of GGAAACCUGCAUCCUAUGATT against Olfr195, the z-score is reported as inactive: -2.84.
With GGAGGUUUUACUCAAACAUTT against Sec14l2 the z-score was inactive: 1.08.
For CGACAUUUGUGUUAACCAUTT against Gprc5c, the z-score was inactive: -1.
With GGCCAUCAAAGAAACUAGCTT against Tas2r139 the z-score was inactive: 0.0695.
With “GGAUAUCCUUACAAGGACCTT against B230339H12Rik” the z-score was inactive: 0.949.
For GGUCAAUGAACAGCACCGGTT against Igfbp2, the z-score was inactive: 0.152.
With GGGAUGACUUUAAUAUCAATT against Pscd3 the z-score was inactive: -1.9e-10.
For CGGAAAACAAUAUCGUGAATT against H2-Ke2, the z-score was inactive: -0.198.
For GGCACUGUGUGUCAGACAATT against Nt5c2l1, the z-score was inactive: -0.249.
In the case of GGUGAACAAAGGAAAGAAUTT against Trpv2, the z-score is reported as inactive: -0.475.
In the case of GGAAAAGAGCUCGUCUCAGTT against Il15, the z-score is reported as inactive: 0.67.
For GCUUGUUCGAGCAAGCAAGTT against Ccnt1, the z-score was inactive: -0.474.
In the case of GCUAAGUAAUCAAUUGCUATT against Bhlhb2, the z-score is reported as inactive: 1.35.
With “CCUGUUUCUAGAGCUGGAGTT against A630001O12Rik” the z-score was inactive: 1.
In the case of AAAACAACCUAUUCAAGGATT against Ngfg, the z-score is reported as inactive: 0.642.
For “CCACCAUGUUUUAUUCCAATT against 2010001H14Rik”, the z-score was inactive: -1.57.
For GGAAGACUUCGUGUUGACATT against Proz, the z-score was inactive: -0.913.
With GGCUCAAAGUUUUCAGAGATT against Kctd14 the z-score was inactive: -0.776.
For GGUGACACCCAGAAUGAGCTT against Htatsf1, the z-score was inactive: -0.0177.
In the case of GGAUAAUCUUGCUGAAAACTT against Scgf, the z-score is reported as inactive: 0.415.
With CGACGAAUCUCACACGCUGTT against H2-T23 the z-score was inactive: 1.73.
In the case of CAUUUACAUUCUUAUUACCTT against Olfr473, the z-score is reported as inactive: -0.963.
For GGAGAAAAAAUACUUGAUGTT against Ppm1d, the z-score was inactive: 2.41.
For GGCUGGAGAGGAAAUGAAUTT against Mrpl51, the z-score was inactive: 0.434.
